Laboratory results: article PMC9688306
For at least one entry, the source does not settle the construct or the ends of the probe. At least one verdict was read from the data and is not stated in words by the source.

Protein sequences, listed by entry. Tags and fused reporters are not part of them. Residues count along the entry.
UniProt P15941, 24-1097: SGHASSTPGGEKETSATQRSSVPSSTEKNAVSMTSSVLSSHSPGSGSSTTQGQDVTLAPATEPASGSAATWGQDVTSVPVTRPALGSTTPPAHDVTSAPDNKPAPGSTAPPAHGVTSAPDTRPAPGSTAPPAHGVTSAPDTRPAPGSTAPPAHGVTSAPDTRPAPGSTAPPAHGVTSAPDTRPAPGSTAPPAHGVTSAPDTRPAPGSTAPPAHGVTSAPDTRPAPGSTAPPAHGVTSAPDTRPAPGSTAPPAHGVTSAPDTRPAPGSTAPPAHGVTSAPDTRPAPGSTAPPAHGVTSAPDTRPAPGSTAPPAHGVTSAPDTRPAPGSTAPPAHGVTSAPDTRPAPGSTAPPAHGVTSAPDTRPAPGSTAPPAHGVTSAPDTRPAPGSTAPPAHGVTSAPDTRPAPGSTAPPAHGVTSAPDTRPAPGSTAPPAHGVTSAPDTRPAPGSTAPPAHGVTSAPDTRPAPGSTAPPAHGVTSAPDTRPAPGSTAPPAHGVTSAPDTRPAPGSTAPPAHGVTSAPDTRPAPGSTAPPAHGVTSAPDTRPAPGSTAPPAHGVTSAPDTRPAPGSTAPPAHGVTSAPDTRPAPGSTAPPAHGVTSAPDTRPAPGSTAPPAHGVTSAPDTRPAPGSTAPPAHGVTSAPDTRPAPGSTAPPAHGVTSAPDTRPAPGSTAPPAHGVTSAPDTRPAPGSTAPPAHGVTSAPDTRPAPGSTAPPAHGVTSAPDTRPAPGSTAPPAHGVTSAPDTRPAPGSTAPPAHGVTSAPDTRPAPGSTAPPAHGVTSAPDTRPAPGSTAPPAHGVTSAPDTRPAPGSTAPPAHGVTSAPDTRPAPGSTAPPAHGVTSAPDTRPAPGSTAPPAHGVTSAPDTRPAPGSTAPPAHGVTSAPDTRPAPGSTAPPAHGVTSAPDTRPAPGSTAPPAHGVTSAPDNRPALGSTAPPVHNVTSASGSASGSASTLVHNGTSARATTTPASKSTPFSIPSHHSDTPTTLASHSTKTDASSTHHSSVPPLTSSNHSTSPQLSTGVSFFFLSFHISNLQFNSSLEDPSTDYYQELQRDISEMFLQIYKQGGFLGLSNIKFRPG

Target: CA 15-3 (Cancer Antigen 15-3) (UniProt P15941)
Experiment: electrochemical aptasensor (CV, SWV)
Settings: methylene blue label, PBS, linear 1-9 U/mL, LOD 0.2 U/mL (no Kd); PBS pH 7.4 (0.1 M), room temperature, 35 min incubation; 0.2 mM ferricyanide probe (label-free) or methylene blue in PBS (label-based); single-stranded DNA

GAAGTGAATATGACAGATCACAACT [CA 15-3 aptamer]
binding result: binds
